Reference: publication PMC12029333

T1: GST-PrkC (Serine/threonine-protein kinase PrkC) (Bacillus subtilis str. 168) (UniProt O34507)
T1 sequence: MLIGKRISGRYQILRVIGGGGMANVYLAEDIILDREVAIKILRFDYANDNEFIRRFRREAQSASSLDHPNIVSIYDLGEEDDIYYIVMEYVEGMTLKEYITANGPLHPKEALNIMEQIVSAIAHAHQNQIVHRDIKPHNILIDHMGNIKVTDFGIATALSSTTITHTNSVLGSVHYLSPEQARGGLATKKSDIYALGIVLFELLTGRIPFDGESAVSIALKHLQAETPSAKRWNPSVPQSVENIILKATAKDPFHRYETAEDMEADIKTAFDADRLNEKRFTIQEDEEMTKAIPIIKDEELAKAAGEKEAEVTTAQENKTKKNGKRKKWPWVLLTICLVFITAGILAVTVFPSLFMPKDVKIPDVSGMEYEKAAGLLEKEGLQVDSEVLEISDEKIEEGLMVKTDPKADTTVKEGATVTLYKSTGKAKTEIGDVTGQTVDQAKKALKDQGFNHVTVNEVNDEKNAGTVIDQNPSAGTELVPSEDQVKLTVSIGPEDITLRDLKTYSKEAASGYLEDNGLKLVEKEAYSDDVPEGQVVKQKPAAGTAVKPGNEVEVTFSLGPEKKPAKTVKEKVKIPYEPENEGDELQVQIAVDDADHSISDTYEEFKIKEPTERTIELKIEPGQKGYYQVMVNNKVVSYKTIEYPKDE

B1: Putative ABC transporter substrate-binding lipoprotein YhfQ (protein, UniProt C0SP94 20-323)
chain: CSSSSGNQNSKEHKVAVTHDLGKTNVPEHPKRVVVLELGFIDTLLDLGITPVGVADDNKAKQLINKDVLKKIDGYTSVGTRSQPSMEKIASLKPDLIIADTTRHKKVYDQLKKIAPTIALNNLNADYQDTIDASLTIAKAVGKEKEMEKKLTAHEEKLSETKQKISANSQSVLLIGNTNDTIMARDENFFTSRLLTQVGYRYAISTSGNSDSSNGGDSVNMKMTLEQLLKTDPDVIILMTGKTDDLDADGKRPIEKNVLWKKLKAVKNGHVYHVDRAVWSLRRSVDGANAILDELQKEMPAAKK
B2: Group 2 truncated hemoglobin YjbI (protein, UniProt O31607 1-132)
chain: MGQSFNAPYEAIGEELLSQLVDTFYERVASHPLLKPIFPSDLTETARKQKQFLTQYLGGPPLYTEEHGHPMLRARHLPFPITNERADAWLSCMKDAMDHVGLEGEIREFLFGRLELTARHMVNQTEAEDRSS
B3: Uncharacterized protein YjdH (protein, UniProt O31649 1-131)
chain: MYHYFYGPALIPYFSHTHNPQRSPDFSERQRRREITLTVDGFVPPSSTEDLGDGFYSYAWTNQQVINPGEYLVCHLEGRDINVINGGFTPRDTAPLYAVASFPRRRNQWVIIIHNPVQTQRAISLYLIAKR
B4: UPF0358 protein YlaN (protein, UniProt O07638 1-93)
chain: MASEMIVDHRQKAFELLKVDAEKILKLIRVQMDNLTMPQCPLYEEVLDTQMFGLSREIDFAVRLGLVDEKDGKDLLYTLERELSALHDAFTAK
B5: Uncharacterized protein YlbO (protein, UniProt O34549 1-193)
chain: MTITRQDAWTQDEDLLLAEVVLRHIREGGTQLSAFEEVGRALTRTAAACGFRWNSYVRKQYQSGIELAKKQRKELRKQIGVHSVNMPNSMKQTASASSEGKRDLSIQDVIQFLEQFKETPSAQEFQLEREKLKEQIQSLQKELEDLRSENQTLRNQLEMTEEDYKALIDIMDRARKMVVSKEDGRMKKAAQET
B6: Uncharacterized N-acetyltransferase YoaA (protein, UniProt O34569 1-177)
chain: MFPILETDRLILRQITDQDAEAIFACFSNDEVTRYYGLENMESIEQAISMIQTFAALYQEKRGIRWGIERRDTKELIGTIGFHALAQKHRRAEIGYEIIPEHWRNGFASEVISKVVSYGFSALGLSRIGAVVFTDNEASNRLLLKMGFQKEGVLRQYMYQNGTPYDTNVYSIVKPRE
B7: ATP-dependent DNA helicase RecQ (protein, UniProt O34748 1-591)
chain: MLHRAQSLLAHYFGYEKFRSGQDEAIRLVTEARQNTACIMPTGGGKSICYQIPALMFEGTTIVISPLISLMKDQVDALEEAGINAAYINSTQSNQEIYERLNGLKEGAYKLFYITPERLTSIEFIRILQGIDVPLVAIDEAHCISQWGHDFRPSYRNIEILFRELHDKPVIMALTATATPEVHDDICKQLHIQKENTVYTGFSRENLTFKVVKGENKDRFIDEYVQNNRHEAGIVYTATRKEADRIYERLKRNQVRAGRYHGGLADDVRKEQQERFLNDELQVMVATSAFGMGIDKSNIRFVLHAQIPKDMESYYQEAGRAGRDGLASECVLLFSPQDIMVQRFLIEQSEHEEKQKQDLKKLRQMVDYCHTEDCLQRFILMYFGEKEPDACGQCGNCTDTRAAHDVTREAQMVLSCIIRMKERFGKTMVAQVLAGSKNKKVLENGFSDLSTYGILKHQSVGEISDFIEFLISDDFIRMSDGTFPTLFVSSKGRNVLKGELSVARKEALKAAAITENDELFERLRMVRKEIAAEQGVPPFVVFSDQTLKEMSGKQPVNDDELLSIKGVGEQKRAKYGRLFLQEIQAYARMTD
B8: SPbeta prophage-derived uncharacterized protein YolB (protein, UniProt O31993 1-118)
chain: MISTSNYDVTKDPKFLAFCSLATEGYGQNNTQQSSIGFNEFCEKLEKNAIVKPENKKSTLDLNKSLEDWKLRFTAGGNLSTMDSQVLDVIKKAYNLGMVNKDNMLLRNEAINAYRNSI
B9: Uncharacterized ATP-dependent helicase YprA (protein, UniProt P50830 1-749)
chain: MKKKSLTELISDLKGNENVVNWHEIEPREAKTRPMPESIDERIKAALSKRGIDELYTHQYSAFQYVQKGESIVTVTPTASGKTLCYNLPVLQSIAQDETNRALYLFPTKALAQDQKSELNEIIDEMGIDIKSFTYDGDTSPAIRQKVRKAGHIVITNPDMLHSAILPHHTKWVSLFENLKYIVIDELHTYRGVFGSHVANVIRRLKRICRFYGSDPVFICTSATIANPKELGEQLTGKPMRLVDDNGAPSGRKHFVFYNPPIVNKPLNIRRSATAEVNELAKEFLKNKVQTIVFARSRVRVEIILSHIQELVKKEIGTKSIRGYRGGYLPKERREIERGLREGDILGVVSTNALELGVDIGQLQVCVMTGYPGSVASAWQQAGRAGRRHGESLIIMVANSTPIDQYIVRHPEYFFNRSPESARINPENLIILVDHLKCAAYELPFRADEEFGAMEVSDILEYLQEEAVLHRNGERYHWASESFPASNISLRSASQENVVIVDQSDIANVRIIGEMDRFSAMTLLHDEAIYLHEGVQYQVEKLDWDHKKAYVRKVDVEYYTDANLAVQLKVLEIDKTKEKSRTSLHYGDVTVNALPTIFKKIKMTTFENIGSGPIHLPEEELHTSAAWLEIKTADEDIGEKTLEQLLLGISNVLQHIVPVYIMCDRNDVHVVSQIKAAHTGLPTIFLYDHYPGGIGLAEEVFKRFSDINEAAKQLITHCPCHDGCPSCIGTEIEGIKAKERILQLLDQMS
B10: Toxin YqcG (protein, UniProt P45942 1-531)
chain: MKVFEAKTLLTEAEKRAQEYKDLKSKMVKLKKAFKAVADLDDSEFSGKGANNIKSFYEDQAGIADQWIDLIEMKISFLTSIPGFLEDANLSDAYIEETFLAHELANAYTKSKSIMSEQKKAMKDILNDINDILPLDLFSTETFKNELSSAEKKRKEAIEKMDEVDQNLTSEYGLSEANEQMIQADYQALMNATAKGKSASPIHYNAKAYRDSEIHKMTEDVKKQSTDYISFKDQQAEQRRIAKEQEELANRPWYEKSWDAVCNFTGEVSGYYDYKRAADGVDPVTGEKLTAGQRVAAGAMAAAGYIPIVGWAGKLAKGGKAVYSTSKALYRADKALDVYKTPKTFHALQNSSKGLYGLASANGFSEAITGRDMFGNKVSKERQEQSLSGAMAMLVPFGARGINKKLNAKSSSRVSEASTNTSKKPKVPKTYKRPTYFRKGVRDKVWENAKDSTGSVKDPLTKQVMKKDEPWDMGHKPGYEFRKHQQSAMERNISRKQFLDEHNNPDHYQPELPSSNRSHKGEDMTDDYFGD
B11: Uncharacterized protein YqeW (protein, UniProt P54463 1-307)
chain: MLILISFTALILFFLAGMNMLRKGLISMAYSKIEERLLLFTDHPLKAFLISIVFTGILQSSSAFMVIVIGFVSAGVLSFKRTIPMILGTNVGSTFTTEFIAIKMDIVIWVLLIGGLLFFLTGRYPLKQLGTSFLGLGIIFFCISGFSHLAGPLTKLKTGADVLYHVNDSNWSALLIGMVLTAIIHSSSVCIGILMSFMNEGIIGLTQAMSVVLGSNIGTCITAVMAAVSGGYAAKQTAYAHVVFNVLGVALVLPFLTAATGFVEQLSPDPAQKIAHFSLLFNVVTALLFLPLTNLFYRLIHLLIPAK
B12: Uncharacterized protein YqhR (protein, UniProt P54516 1-178)
chain: MMTSEKDTEQNEELNEKQKPPVSMAGRVAATGFCGGVLWSFVAYIAYLFHFSEISPNMILQPFVLGEWKKHGLGTVISIILIGVISIGAAFLYFLLLKRLKTMWPGILYGLVLWLLVFFVFNPIFPDVRTVTELTSDTIITTICIYLLYGLFVGYSISFEYNELNSEKLARALGMHRE
B13: Uncharacterized oxidoreductase YrbE (protein, UniProt O05389 1-341)
chain: MTKQIVTGIIGAGRIGKLHVQNISRIPHMKIKAISDIQASRIKSWADSHQIEYITSDYRDLLHDPDIDAIFICSPTAVHAQMIKEAAEAKKHIFCEKPVSFSLDETSEALAAVRKHGVTLQVGFNRRFDPHFKKIKTIVENGEIGTPHLLKITSRDPEPPNIDYVRTSGGLFMDMSIHDFDMARYIMGSEVTEVYAKGAALVNPSFAELGDIDTAVITLTFENGAMAVIDNSRQAVYGYDQRVEVFGTKGSAAADNSRPTTVEVSTADFVMKDKPHFFFLERYKDSYEEEILRFAEAIGTNQETPCTGNDGLQAGRIARAAQQSLAFGMPVSIEHTEKIAF
B14: Endolytic murein transglycosylase (protein, UniProt O34758 1-360)
chain: MYINQQKKSFFNKKRIILSSIVVLFLIIGGAFLYGKSLLEPVEKDSKTTVNINIPSGSSVSAIASILKKNDVIKSEKAFQYYVKYKGASGFQAGFYHLNKGMDLDAIIQKLTSGATGYAFQITVTEGAQLTQIAAAIADETKYSKKQVIAKLDDETFINQLKKEFPDTVTNDVFNKNIKHPLEGYLFPATYPFNDPDTSLEDIIKAMIKQTNSYVETYKSEMKKNKVSVHKLLTMASLIEEEATEKADRHKIASVFYNRLKKKMPLQTDPTVLYAAGKHKDRVLYKDLEIDSPYNTYKNTGLTPGPIANAGMSSWEAALHPDKTDYLYFLAKSNGEVVFTKTLKEHNKAKEKYISSKNEK
B15: UPF0354 protein YtpQ (protein, UniProt O34496 1-269)
chain: MKMTSRKLSDILKQRLQHENRSFLFDREKDTLRVEDQTTKKGITLDLPPIIAKWELKKDEAIDEIVYYVSEAMTAMEGKAQEMTGKETRIYPVIRSTSFPDKSSEDIPLIYDDHTAETRIYYALDLGKTYRLIDQRMLEKENWTKERIRETAAFNLRSLPTVVKEDTVAGNYFYFFRANDGYDASRILNEAILNEYKQHAEGELAISVPHQDVLILADIRNESGYDILGQMSMSFFAGGTVPITALSFLYNEGKLEPVFILAKSRPKKD

The binders below were run against T1, GST-PrkC (Serine/threonine-protein kinase PrkC) (Bacillus subtilis str. 168) (assay: affinity purification with mass spectrometry; GST-PrkC on glutathione resin incubated with B. subtilis spore lysate at 4 °C; resin washed; bound proteins eluted with 20 mM reduced glutathione; eluate digested with trypsin and analysed by LC-MS/MS; hits filtered at 1% FDR, >=2 unique peptides; only the target purified).
For B1, the binding was “binds”. With B2 the binding was “binds”. With B3 the binding was “binds”. B4 was tested, and the binding was “binds”. With B5 the binding was “binds”. With B6 the binding was “binds”. With B7 the binding was “binds”. B8 was tested, and the binding was “binds”. B9 was tested, and the binding was “binds”. In the case of B10, the binding is reported as “binds”. With B11 the binding was “binds”. With B12 the binding was “binds”. With B13 the binding was “binds”. B14 was tested, and the binding was “binds”. In the case of B15, the binding is reported as “binds”.

No constants are given. Whether binding was seen depends on the method and setting. In cells and extracts the contact can be indirect. Here binding means that the protein was enriched with, or labelled near, the bait; the list need not be complete. Sequences can lack the tags named with a protein.
